Experimental findings from article PMC10368641, “Expulsion mechanism of the substrate-translocating subunit in ECF transporters” (Nature Communications, 2023) are described below.

Sequences of proteins named here, by UniProt entry; tags and fusion partners are left off. A change or cut given only in a name is not applied to a line headed by its entry.
UniProt Q1GBJ0: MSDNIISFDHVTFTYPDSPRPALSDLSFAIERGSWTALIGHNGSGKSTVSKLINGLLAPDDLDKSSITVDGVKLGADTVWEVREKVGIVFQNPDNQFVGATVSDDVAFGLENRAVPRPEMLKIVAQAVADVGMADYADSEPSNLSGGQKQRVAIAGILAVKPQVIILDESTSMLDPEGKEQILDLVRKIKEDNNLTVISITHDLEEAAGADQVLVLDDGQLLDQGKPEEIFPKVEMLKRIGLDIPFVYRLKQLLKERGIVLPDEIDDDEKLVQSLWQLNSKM
UniProt Q1GBI9: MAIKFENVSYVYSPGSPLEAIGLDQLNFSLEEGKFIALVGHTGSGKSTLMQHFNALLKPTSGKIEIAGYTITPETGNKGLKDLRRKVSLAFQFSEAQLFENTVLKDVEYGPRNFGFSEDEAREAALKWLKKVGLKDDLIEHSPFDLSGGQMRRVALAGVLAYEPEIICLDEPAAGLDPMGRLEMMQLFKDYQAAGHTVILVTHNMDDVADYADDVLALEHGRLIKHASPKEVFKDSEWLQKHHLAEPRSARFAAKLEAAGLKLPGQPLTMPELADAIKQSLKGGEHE

No constants are given. Whether binding was seen depends on the method and setting. Binding seen in cells or lysates may run through a third protein. Binding calls can cover weak binding; strength is not graded here.

The target of the assay is EcfA E169Q, Walker B mutant (tag removed) (L. delbrueckii) (UniProt Q1GBJ0). Kind of assay: co-purification (Nickel-Sepharose, on-column TEV release, SEC); single mutant solitary ECF modules from DDM-solubilised E. coli membrane vesicles, 4 °C; held by the His10 tag, released by TEV protease, Superdex 200 in 20 mM Tris pH 8.0, 150 mM NaCl, 0.017% DDM.

For the substance “EcfA’, ATPase subunit of the ECF module (from UniProt Q1GBI9)”, the binding result is on record as “binds”.
